In the supplement of paper PMC6078165:
Values are relative to the signal before dosing, not to a vehicle control; the signal also falls without drug.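 Fibroblast labels denote human fibroblasts, mainly primary ones from uterus (C12385, HUF), lung (H6013), bone (Hs27A), adrenal (HADF) and skin (WS1), plus mammary HMF and breast cancer-associated Hs343T. Cancer cells are basal-like or mesenchymal-like triple-negative breast cancer lines. A hit is a response shift exceeding 3x replicate standard deviation. The tissue of the other fibroblasts is not given here.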

Test system: MDAMB468
Assay: relative JC-1 red fluorescence (viability) vs pre-drug, coculture with fibroblast (fraction); higher = more viable cancer cells
Details: 100 µM
Description: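 JC-1 labelled TNBC cells cocultured 1:1 (1,500 cells each) with CellTrace Violet stained primary or stromal fibroblasts in 384-well plates in FluoroBrite medium, treated with one of 42 anticancer drugs at 0.1, 1, 10 or 100 uM. JC-1 red fluorescence (mitochondrial integrity in cancer cells only) was read by plate reader every 8 h for 72 h. Values are normalised to each well's pre-drug value. The stock of one drug was tenfold lower, so its dose labels may be too high.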

CC(=O)O[C@@]12CO[C@@H]1C[C@H](O)[C@@]1(C)C(=O)[C@H](O)C3=C(C)[C@@H](OC(=O)[C@H](O)[C@@H](NC(=O)OC(C)(C)C)c4ccccc4)C[C@@](O)([C@@H](OC(=O)c4ccccc4)[C@H]21)C3(C)C [Docetaxel]
relative JC-1 red fluorescence
Details	8 h	16 h	24 h	32 h	40 h
coculture fibroblast: C12385	0.9157	0.915	0.875	0.799	0.76
coculture fibroblast: H6013	0.858	0.829	0.823	0.8358	0.826
coculture fibroblast: H6019	0.879	0.834	0.815	0.76532	0.7288
coculture fibroblast: H6076	0.9579	0.857	0.983	0.965	0.898
coculture fibroblast: H6231	0.8533	0.924	0.868	0.882	0.813
coculture fibroblast: HADF	0.859	0.829	0.789	0.816	0.797
coculture fibroblast: HCFa	0.883	0.851	0.811	0.821	0.784
coculture fibroblast: HCPF	0.9153	0.808	0.973	0.96	0.886
coculture fibroblast: HHSteC	0.89258	0.888	0.865	0.8501	–
coculture fibroblast: HMF	0.871	0.847	0.912	0.883	–
coculture fibroblast: HPFa	0.9374	0.912	0.893	0.845	–
coculture fibroblast: HUF	0.9244	0.847	0.80327	0.735	–
coculture fibroblast: Hs5	0.821	0.869	0.796	0.88	–
coculture fibroblast: Hs27A	0.814	0.7792	0.747	0.773	–
coculture fibroblast: Hs343T	0.938	0.734	0.954	0.902	–
coculture fibroblast: WS1	0.90697	0.8567	0.8021	0.737	–
